From publication PMC11116810

Target: T1, ERLIN2 (ER lipid raft-associated 2) (human (endogenous in HeLa)) (UniProt O94905)
T1 sequence: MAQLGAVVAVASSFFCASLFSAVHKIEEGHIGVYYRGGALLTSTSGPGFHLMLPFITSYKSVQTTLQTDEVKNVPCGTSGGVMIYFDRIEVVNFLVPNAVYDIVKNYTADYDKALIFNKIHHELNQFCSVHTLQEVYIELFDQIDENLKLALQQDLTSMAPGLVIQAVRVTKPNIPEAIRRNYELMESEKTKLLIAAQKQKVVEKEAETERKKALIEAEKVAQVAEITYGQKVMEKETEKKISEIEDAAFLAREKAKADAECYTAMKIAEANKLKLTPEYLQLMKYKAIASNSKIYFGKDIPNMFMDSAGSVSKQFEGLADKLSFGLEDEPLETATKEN
Assay: co-IP; reciprocal co-IPs of endogenous ERLIN2 and TMUB1 from HeLa lysate (IP buffer: Tris-HCl pH 7.4 50 mM, KCl 50 mM, Triton X-100 0.5%), Western blot

## TMUB1-S (short isoform of TMUB1) (human (endogenous in HeLa))
  binding: no binding

No constants are given. Whether binding was seen depends on the method and setting. In cells and extracts the contact can be indirect.
